Literature values in patent US7687496B2, “C7-substituted camptothecin analogs” (priority 2007, dated 2010).

Settings: closed E-ring lactone form; cited from earlier work

Compound: CC[C@@]1(O)C(=O)OCc2c1cc1n(c2=O)Cc2cc3ccccc3nc2-1 [CPT, (S)-4-Ethyl-4-hydroxy-1H-pyrano[3′,4′:6,7]indolizino[1,2-b]quinoline-3,14(4H,12H)-dione]
- solubility in water: approximately 0.1 μg/mL
